Data: the supplement of paper PMC4683952
This is one part of the list. Cut-off read from the data, not from the text of the source: active = 2 or more and inactive = the rest. Most values lie within the scatter of the assay; repeated measurements hardly agree.

System: Lgr5 (MarsCy1-Lgr5-EGFP, U2OS)
Test: cell-surface Lgr5 expression (SCi1 fluorescence, background-subtracted) relative to WT DMSO (fold of DMSO control); higher = more Lgr5 at the plasma membrane
Details: U2OS MarsCy1-Lgr5-EGFP stable; treatment time: overnight; library: ActiProbe-5K (TimTec); 25 µM

| Compound | cell-surface Lgr5 expression |
| --- | --- |
| CN1C(=O)Cc2cc(Br)ccc21 | inactive: 1.19 |
| O=c1[nH]cccc1NS(=O)(=O)c1ccc(F)cc1 | inactive: 1.03 |
| CC(C)[Si]1(C(C)C)OCC2O[C@@H](n3ccc(N)nc3=O)C(O)C2O[Si](C(C)C)(C(C)C)O1 (stereo partly specified) | inactive: 1.46 |
| Cc1cc(C)n(Cn2nc(N)cc2C)n1 | inactive: 1.16 |
| Brc1ccc(-n2cnnn2)c2ncccc12 | inactive: 1.21 |
| CCC(CCC(C)O)CC1CCCO1 (stereo unspecified) | inactive: 1.4 |
| O=C(Nc1nc2c(s1)CCCC2)C1CC(=O)N(C2CCCCC2)C1 (stereo unspecified) | inactive: 1.2 |
| CCc1ccc(/C=N/n2c(S)nnc2-c2ccc(C(C)(C)C)cc2)cc1 | inactive: 0.817 |
| O=C(CCCCCCCC(=O)N/N=C/c1ccc([N+](=O)[O-])o1)N/N=C\c1ccc([N+](=O)[O-])o1 | inactive: 1.36 |
| COc1c(C)c(C)c(OC)c(S(=O)(=O)N2CCCCC2)c1C | inactive: 0.98 |
| CSc1sc(SC)c(CO)c1CO | inactive: 0.929 |
| CC1CC2=C(OC(N)=C(C#N)C2c2cccs2)/C(=C/c2cccs2)C1 (stereo unspecified) | inactive: 1.21 |
| OC1CCc2ccccc2C1 (stereo unspecified) | inactive: 1.2 |
| Nn1nnnc1Nc1ccccc1 | inactive: 0.913 |
| Cc1ccc(/C=C2/SC(=O)NC2=S)o1 | inactive: 1.01 |
| Cc1cc(C(C)(C)C)cc(C)c1CC1=NCCN1 | inactive: 1.37 |
| CCn1ncc(Cn2cc(NS(=O)(=O)c3c(C)nn(C(F)F)c3C)cn2)c1C | inactive: 1.07 |
| C(/S(=O)(=O)CCCC)(S(=O)(=O)CCCC)=C1\NCCN1 | inactive: 0.878 |
| NC(=O)C(C(N)=O)C1CCS(=O)(=O)C1 (stereo unspecified) | inactive: 1.09 |
| Nc1ccc(/N=N\c2ccccc2)c(N)n1 | inactive: 1.02 |
| S(CC12[C@@]([C@@H](CC2)CC1O)(C)C)(N(C1CCCCC1)C1CCCCC1)(=O)=O (stereo partly specified) | inactive: 0.82 |
| Cn1c(SCc2nc3ccccc3[nH]2)nc2ccccc21 | inactive: 1.12 |
| O=C1Nc2ccc(Cl)cc2/C1=C\c1ccc2c(c1)OCO2 | inactive: 1.41 |
| O=C(O)C1Cc2nc[nH]c2C=N1 (stereo unspecified) | inactive: 1.22 |

| Compound | cell-surface Lgr5 expression |
| --- | --- |
| NC(=S)N/N=C/c1cccnc1 | inactive: 1.19 |
| O=C(O)CC12CC3CC(C1)CC(CC(=O)O)(C3)C2 | inactive: 1.27 |
| O=C1NCCN1C(=O)Nc1nccs1 | inactive: 0.758 |
| O=C(c1ccco1)c1coc2ccc(O)cc12 | inactive: 0.921 |
| C=1(C(C(C(C)(C)C)=CC(/C1)=C/c1cc(c([O])c(c1)C(C)(C)C)C(C)(C)C)=O)C(C)(C)C | inactive: 1.18 |
| O=S(=O)(c1ccccc1)N1CCN(C2CCCC2)CC1 | inactive: 1.09 |
| N#CCC(=O)C12CC3CC(CC(C3)C1)C2 | inactive: 1.23 |
| Cc1ccsc1/C=N\n1c(S)nnc1C1CCCCC1 | inactive: 0.962 |
| CC(=O)c1c(C)nc(-c2cccs2)n1O | inactive: 1.14 |
| CCCC(C)Sc1nc2nc(C)cc(C)n2n1 (stereo unspecified) | inactive: 1.25 |
| COc1cc(F)c(Br)cc1F | inactive: 0.937 |
| SC1=NN(c2ccccc2)C2=C(CCC2)S1 | inactive: 0.925 |
| N#Cc1cc(F)ccc1C(F)(F)F | inactive: 1.04 |
| O=C1COc2ccc(S(=O)(=O)NCC3CC4CCC3C4)cc2N1 (stereo unspecified) | inactive: 0.96 |
| O=C(c1cc([N+](=O)[O-])n[nH]1)N1CCSCC1 | inactive: 0.986 |
| COc1cc2c(c(OC)c1OC)COC2=O | inactive: 1.58 |
| O=[N+]([O-])c1ccc2oc3c(c2c1)CCCC3 | inactive: 1.06 |
| O=C(O)CCN1C(=O)NC2NC(=O)NC21 (stereo unspecified) | inactive: 1.04 |
| CCC(=O)Nc1nonc1-c1noc(CC)n1 | inactive: 1.22 |
| Cc1[nH]nc(O)c1C1(C(C#N)C#N)C2CC3CC(C2)CC1C3 (stereo unspecified) | inactive: 1.29 |
| Nc1nc(CSc2ncccn2)nc(Nc2ccccc2)n1 | inactive: 1.09 |
| N#CCC(N\N=C1\CCCCC1)=O | inactive: 1.07 |
| Nc1c(F)c(F)nc(F)c1F | inactive: 1.23 |
| C=CCN1CNC(CCSC)C1=O (stereo unspecified) | inactive: 0.779 |

Four successive compounds already listed:

| Compound | cell-surface Lgr5 expression |
| --- | --- |
| O=[N+]([O-])c1ccc2oc3c(c2c1)CCCC3 | inactive: 1.06 |
| O=C(O)CCN1C(=O)NC2NC(=O)NC21 (stereo unspecified) | inactive: 1.04 |
| CCC(=O)Nc1nonc1-c1noc(CC)n1 | inactive: 1.22 |
| Cc1[nH]nc(O)c1C1(C(C#N)C#N)C2CC3CC(C2)CC1C3 (stereo unspecified) | inactive: 1.29 |

(more compounds)

| Compound | cell-surface Lgr5 expression |
| --- | --- |
| C#CC(C)(C)OC(=O)C1CC(C)=CCC1C(=O)O (stereo unspecified) | inactive: 1.15 |
| C(=C/c1ccccc1)/C=N/N1CCN(c2ccccn2)CC1 | inactive: 0.935 |
| O=S(=O)(c1ccccc1)n1ccc2ccccc21 | inactive: 1.3 |
| CCCN(CCC)C(=O)N1CCNC1=O | inactive: 1.41 |
| O=C(Nc1nc2c(s1)CCCCC2)C1CCCC1 | inactive: 0.786 |
| CC(=O)CSCc1ccco1 | inactive: 0.875 |
| CNC(=O)C1CC(=O)N(C)C1 (stereo unspecified) | inactive: 1.23 |
| Cc1ccc(-c2nnc3c(n2)c(=O)n(C)c(=O)n3C)o1 | inactive: 1.3 |
| Cc1cc(-c2cc(O)[nH]n2)c(C)s1 | inactive: 0.682 |
| OC(COC1CCCCC1)CN1CCN(CC(O)COC2CCCCC2)CC1 (stereo unspecified) | inactive: 1.19 |
| O=Cc1ccc(Cn2cc([N+](=O)[O-])cn2)o1 | inactive: 1.61 |
| CCC1(CC)OC(c2ccccn2)Nc2ccccc21 (stereo unspecified) | inactive: 1.16 |
| NCCNC(=O)c1nonc1N | inactive: 1.31 |
| O=C(c1ccc(Br)o1)N1CCOCC1 | inactive: 1.45 |
| O=C1NC(=O)/C(=C\c2ccc(Cl)s2)S1 | inactive: 0.864 |
| C/C(=N\NC(=O)c1cccs1)C(C)(C)C | inactive: 1.05 |
| C=CCC(=O)n1c(=O)sc2ccccc21 | inactive: 1.08 |
| CN(C)CCn1cnc2cc([N+](=O)[O-])ccc21 | inactive: 1.19 |
| CC(C)(C)c1cc(Sc2c(F)c(F)nc(N3CCCC3)c2F)cc(C(C)(C)C)c1O | inactive: 1.11 |
| O=C(CC1CCS(=O)(=O)C1)NC1CCCCC1 (stereo unspecified) | inactive: 1.11 |
| CN=C1/C(=C/c2ccc(C(C)(C)C)cc2)COC/C1=C\c1ccc(C(C)(C)C)cc1 | inactive: 1.17 |
| COc1ccc(-c2noc(-c3ccc(OC)cc3)[n+]2[O-])cc1 | inactive: 1.42 |
| COc1ccc(OC)c(S(=O)(=O)N2CCOCC2)c1 | inactive: 1.13 |
